Measurements taken from article PMC9941103.
These are yes or no findings as the source states them, for the method shown. Some results given as binding are weak or reduced against the parent protein; the word gives no strength.

Molecular target: T1, full-length Complexin-1, P63041
T1 chain: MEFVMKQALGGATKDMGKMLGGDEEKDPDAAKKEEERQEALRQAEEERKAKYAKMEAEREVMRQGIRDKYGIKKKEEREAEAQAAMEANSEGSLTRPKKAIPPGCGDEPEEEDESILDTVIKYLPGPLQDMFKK
Assay: cross-linking; one protein alone: 10 µM SNAP25 or Syntaxin-1A with 150-fold molar excess of BS3, 50 µM Complexin-1 with 10-fold excess; trypsin, peptide SEC, LC-MS/MS; inter-molecular links told by identical or overlapping peptides; both purified
Details: remark: other sources report otherwise

binding: binds
B1: full-length Complexin-1, P63041 1-134 (natural protein)
chain: MEFVMKQALGGATKDMGKMLGGDEEKDPDAAKKEEERQEALRQAEEERKAKYAKMEAEREVMRQGIRDKYGIKKKEEREAEAQAAMEANSEGSLTRPKKAIPPGCGDEPEEEDESILDTVIKYLPGPLQDMFKK
